Laboratory results: patent US20150110777A1 (PROTHENA BIOSCIENCES, published 2015)
Positions count from the first letter of the chain named. No constants are given. Whether binding was seen depends on the method and setting. Some entries that bind do so weakly or less than the wild type.

T1: human islet-amyloid polypeptide (IAPP) (human)
T1 construct: also called hIAPP; human IAPP
T1 peptide: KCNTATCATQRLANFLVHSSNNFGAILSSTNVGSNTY

B1: humanized 6B8 H2L1 antibody (antibody, V domains shown)
VH: QVQLQQSGAEVKKPGASVKVSCKASGYTFTSYWMHWVRQRPGQGLEWMGEINPRNGHSNYNEKIRNRVTMTADTSTSTVYMELSSLRSEDTAVYYCTVNRGFYYFFDVWGQGTTVTVSS
VL: DVLMTQSPLSLPVTPGEPASISCRSSQSIAHSNGNTYLEWYLQKPGQSPQLLIYKVSNRFSGVPDRFSGSGSGTDFTLKISRVEAEDVGVYYCFQGSHIPRTFGGGTKLEIKR
notes: Only variable regions are tied to the tested antibody; also called h6B8-H2L1; h6B8 H2L1
B2: murine 6B8 antibody (LA21-6B8) (antibody, V domains shown)
VH: QVQLQQPGAELVKPGASVRLSCKASGYTFTSYWMHWVKQRPGQGLEWLGEINPRNGHSNYNEKIRNKATLTADTSSSTVSMQLSSLTSEDSAVYYCTVNRGFYYFFDVWGTGTTVTVSS
VL: B1 VL with T14S, P15L, E17D, P18Q, Q50K, V88L
notes: also called m6B8; mouse 6B8

How the values were obtained:
[1] = molecular target: T1, human islet-amyloid polypeptide (IAPP); assay: ELISA on hIAPP, values normalized to h6B8 H2L1
[2] = molecular target: T1, human islet-amyloid polypeptide (IAPP); assay: ELISA screen of hybridomas on hIAPP

| Binder | binding [1] | binding [2] |
| --- | --- | --- |
| B1 | binds | – |
| B2 | – | binds |
